Results: patent publication US20210254024A1
Results are given in words; binding and its absence hold for the method and conditions named. Some results given as binding are weak or reduced against the parent protein; the word gives no strength.

Sequences of proteins named here, by UniProt entry; tags and fusion partners are left off. A change or cut given only in a name is not applied to a line headed by its entry.
UniProt P06756: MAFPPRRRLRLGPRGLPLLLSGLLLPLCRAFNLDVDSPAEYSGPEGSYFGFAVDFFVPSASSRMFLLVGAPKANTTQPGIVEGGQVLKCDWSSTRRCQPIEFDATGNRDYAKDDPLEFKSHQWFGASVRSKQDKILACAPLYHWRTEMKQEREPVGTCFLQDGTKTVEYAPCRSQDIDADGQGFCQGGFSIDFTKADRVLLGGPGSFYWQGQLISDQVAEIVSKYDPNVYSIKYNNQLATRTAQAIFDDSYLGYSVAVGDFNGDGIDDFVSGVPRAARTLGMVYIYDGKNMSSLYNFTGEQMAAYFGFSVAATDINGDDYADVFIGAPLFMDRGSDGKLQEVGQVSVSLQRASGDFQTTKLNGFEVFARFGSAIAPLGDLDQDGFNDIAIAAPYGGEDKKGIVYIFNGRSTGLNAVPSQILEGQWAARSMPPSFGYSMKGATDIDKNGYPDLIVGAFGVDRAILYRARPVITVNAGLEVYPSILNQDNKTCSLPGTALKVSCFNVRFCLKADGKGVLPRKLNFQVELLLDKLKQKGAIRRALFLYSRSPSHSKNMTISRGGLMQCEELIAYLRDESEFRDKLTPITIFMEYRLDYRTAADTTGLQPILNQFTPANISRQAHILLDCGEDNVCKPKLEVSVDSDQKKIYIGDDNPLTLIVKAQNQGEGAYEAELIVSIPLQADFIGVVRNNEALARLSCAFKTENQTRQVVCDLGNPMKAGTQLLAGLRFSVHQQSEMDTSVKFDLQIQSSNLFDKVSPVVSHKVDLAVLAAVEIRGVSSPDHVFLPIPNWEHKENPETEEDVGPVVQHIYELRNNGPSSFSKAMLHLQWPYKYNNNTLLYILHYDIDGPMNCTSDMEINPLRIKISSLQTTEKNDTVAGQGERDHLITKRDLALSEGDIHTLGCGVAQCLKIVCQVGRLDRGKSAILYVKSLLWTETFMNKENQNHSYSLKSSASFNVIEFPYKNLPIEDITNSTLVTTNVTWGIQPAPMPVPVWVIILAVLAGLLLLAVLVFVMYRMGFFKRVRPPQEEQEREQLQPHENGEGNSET

Columns and labels:
[1] = molecular target: αvβ5 integrin on M21 tumor cells (UniProt P06756); assay: M21 cell adhesion assay: uricase coated at 0-100 ug/ml, fluorescent M21 cells (express αvβ3 and αvβ5), bound cells read by total fluorescence
[2] = molecular target: αvβ3 integrin on M21 tumor cells (UniProt P06756); assay: as above

B1: RGD containing Arthrobacter globiformis uricase (enzyme)
chain: MGSHHHHHHGARQTATAETSTGTKVVLGQNQYGKAEVRLVKVTRNTARHEIQDLNVTSQLRGDFEAAHTAGDNAHVVATDTQKNTVYAFARDGFATTEEFLLRLGKHFTEGFDWVTGGRWAAQQFFWDRINDHDHAFSRNKSEVRTAVLEISGSEQAIVAGIEGLTVLKSTGSEFHGFPRDKYTTLQETTDRILATDVSARWRYNTVEVDFDAVYASVRGLLLKAFAETHSLALQQTMYEMGRAVIETHPEIDEIKMSLPNKHHFLVDLQPFGQDNPNEVFYAADRPYGLIEATIQREGSRAD
In the case of B1, the binding [1] is reported as “binds” and the binding [2] is reported as “binds”.
